Source: the supplement of paper PMC12823440, “Inhibitors supercharge kinase turnover through native proteolytic circuits” (Nature, 2025)
Counter-ions that a name gives are not always drawn. The list shows a part of the results. The calls rarely recur for the same compound in another form.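 Kinases were expressed as nanoluciferase fusions in K562 cells and luminescence was read every 4 h between 2 and 18 h as percent of control, DMSO set to 100% and a positive control to 0%. A time point counts as decreased when the signal drops significantly (2 sigma). The hit call is the authors' own, does not follow from the count of time points alone, and its rule is not shown.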

By UniProt entry, the sequences of proteins in these tests, tags left out. Where a name states a change or a piece, a line headed by the entry shows the natural chain unless it says otherwise.
UniProt Q9UQM7, whole entry: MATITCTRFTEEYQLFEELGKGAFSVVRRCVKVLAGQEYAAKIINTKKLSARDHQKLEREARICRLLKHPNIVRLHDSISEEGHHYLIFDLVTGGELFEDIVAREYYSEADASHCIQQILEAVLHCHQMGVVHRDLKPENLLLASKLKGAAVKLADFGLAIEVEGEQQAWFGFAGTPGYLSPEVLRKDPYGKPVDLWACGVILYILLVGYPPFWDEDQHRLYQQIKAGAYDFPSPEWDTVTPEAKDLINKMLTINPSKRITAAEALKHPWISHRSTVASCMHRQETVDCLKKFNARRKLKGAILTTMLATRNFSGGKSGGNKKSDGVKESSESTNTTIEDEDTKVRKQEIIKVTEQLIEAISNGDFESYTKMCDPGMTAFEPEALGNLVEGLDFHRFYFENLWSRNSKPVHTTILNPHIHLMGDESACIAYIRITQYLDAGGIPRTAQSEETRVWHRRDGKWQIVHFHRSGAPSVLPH
UniProt Q13555: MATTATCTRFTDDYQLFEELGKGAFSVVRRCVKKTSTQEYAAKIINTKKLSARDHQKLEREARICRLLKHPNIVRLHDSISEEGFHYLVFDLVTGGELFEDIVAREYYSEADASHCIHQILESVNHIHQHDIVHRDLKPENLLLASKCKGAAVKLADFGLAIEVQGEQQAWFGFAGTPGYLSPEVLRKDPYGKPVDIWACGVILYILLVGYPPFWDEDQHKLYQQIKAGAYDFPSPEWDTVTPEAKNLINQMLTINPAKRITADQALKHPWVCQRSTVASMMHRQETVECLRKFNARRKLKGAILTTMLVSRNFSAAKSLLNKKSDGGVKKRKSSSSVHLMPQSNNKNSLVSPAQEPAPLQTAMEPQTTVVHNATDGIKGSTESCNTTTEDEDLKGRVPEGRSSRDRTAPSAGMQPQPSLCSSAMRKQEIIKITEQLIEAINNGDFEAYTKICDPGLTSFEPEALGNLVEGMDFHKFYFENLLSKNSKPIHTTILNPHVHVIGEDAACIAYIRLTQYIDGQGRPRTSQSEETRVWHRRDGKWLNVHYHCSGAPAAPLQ
UniProt Q15131: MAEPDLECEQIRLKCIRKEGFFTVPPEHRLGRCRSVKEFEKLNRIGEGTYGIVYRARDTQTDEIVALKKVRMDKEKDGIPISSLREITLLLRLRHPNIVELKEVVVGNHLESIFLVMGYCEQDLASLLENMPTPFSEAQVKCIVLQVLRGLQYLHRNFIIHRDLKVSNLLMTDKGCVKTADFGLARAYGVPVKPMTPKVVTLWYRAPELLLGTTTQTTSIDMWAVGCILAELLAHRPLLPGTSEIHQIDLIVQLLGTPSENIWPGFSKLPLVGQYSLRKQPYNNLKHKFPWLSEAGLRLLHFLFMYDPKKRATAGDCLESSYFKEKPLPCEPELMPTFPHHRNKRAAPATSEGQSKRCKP
UniProt Q00526: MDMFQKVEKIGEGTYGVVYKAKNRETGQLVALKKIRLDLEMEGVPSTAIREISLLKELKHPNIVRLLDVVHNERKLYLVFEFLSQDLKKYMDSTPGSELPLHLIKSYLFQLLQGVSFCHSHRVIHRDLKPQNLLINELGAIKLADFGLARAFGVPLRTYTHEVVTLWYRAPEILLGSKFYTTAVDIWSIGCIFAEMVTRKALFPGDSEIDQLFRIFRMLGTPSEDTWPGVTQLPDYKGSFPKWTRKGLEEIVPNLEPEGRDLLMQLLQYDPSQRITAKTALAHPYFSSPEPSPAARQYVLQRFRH
UniProt Q00535, whole entry, looked up: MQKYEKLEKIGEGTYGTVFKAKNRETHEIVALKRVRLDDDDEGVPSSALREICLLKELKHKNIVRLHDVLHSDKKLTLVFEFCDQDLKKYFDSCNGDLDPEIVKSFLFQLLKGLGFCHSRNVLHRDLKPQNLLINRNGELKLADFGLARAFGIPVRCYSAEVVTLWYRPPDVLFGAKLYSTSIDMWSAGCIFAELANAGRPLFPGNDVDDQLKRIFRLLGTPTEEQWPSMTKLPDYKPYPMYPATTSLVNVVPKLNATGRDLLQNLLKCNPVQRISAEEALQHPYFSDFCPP
UniProt Q00534, whole entry: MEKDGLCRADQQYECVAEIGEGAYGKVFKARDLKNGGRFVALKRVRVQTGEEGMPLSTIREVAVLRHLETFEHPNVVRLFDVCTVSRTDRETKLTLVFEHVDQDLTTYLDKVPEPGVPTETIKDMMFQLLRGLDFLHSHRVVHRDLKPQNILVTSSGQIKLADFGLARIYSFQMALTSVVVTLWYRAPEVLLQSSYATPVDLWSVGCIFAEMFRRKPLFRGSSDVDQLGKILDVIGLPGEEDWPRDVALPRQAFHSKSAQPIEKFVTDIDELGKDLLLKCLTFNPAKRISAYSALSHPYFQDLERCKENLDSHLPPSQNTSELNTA
UniProt O96017, whole entry: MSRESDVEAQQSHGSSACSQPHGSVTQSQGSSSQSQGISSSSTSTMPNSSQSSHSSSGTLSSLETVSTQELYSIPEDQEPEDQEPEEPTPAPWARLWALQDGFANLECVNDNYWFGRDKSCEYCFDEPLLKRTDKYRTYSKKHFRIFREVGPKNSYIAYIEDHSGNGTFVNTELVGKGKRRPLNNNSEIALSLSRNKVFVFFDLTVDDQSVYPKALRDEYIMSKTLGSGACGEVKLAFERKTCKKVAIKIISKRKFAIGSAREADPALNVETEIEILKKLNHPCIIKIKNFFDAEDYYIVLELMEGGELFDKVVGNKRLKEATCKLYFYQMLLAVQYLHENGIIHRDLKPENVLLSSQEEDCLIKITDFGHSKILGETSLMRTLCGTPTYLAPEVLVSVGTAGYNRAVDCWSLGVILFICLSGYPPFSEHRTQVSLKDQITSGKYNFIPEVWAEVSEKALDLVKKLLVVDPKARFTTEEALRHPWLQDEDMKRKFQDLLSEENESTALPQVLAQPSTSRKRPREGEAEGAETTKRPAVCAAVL
UniProt P07333, whole entry: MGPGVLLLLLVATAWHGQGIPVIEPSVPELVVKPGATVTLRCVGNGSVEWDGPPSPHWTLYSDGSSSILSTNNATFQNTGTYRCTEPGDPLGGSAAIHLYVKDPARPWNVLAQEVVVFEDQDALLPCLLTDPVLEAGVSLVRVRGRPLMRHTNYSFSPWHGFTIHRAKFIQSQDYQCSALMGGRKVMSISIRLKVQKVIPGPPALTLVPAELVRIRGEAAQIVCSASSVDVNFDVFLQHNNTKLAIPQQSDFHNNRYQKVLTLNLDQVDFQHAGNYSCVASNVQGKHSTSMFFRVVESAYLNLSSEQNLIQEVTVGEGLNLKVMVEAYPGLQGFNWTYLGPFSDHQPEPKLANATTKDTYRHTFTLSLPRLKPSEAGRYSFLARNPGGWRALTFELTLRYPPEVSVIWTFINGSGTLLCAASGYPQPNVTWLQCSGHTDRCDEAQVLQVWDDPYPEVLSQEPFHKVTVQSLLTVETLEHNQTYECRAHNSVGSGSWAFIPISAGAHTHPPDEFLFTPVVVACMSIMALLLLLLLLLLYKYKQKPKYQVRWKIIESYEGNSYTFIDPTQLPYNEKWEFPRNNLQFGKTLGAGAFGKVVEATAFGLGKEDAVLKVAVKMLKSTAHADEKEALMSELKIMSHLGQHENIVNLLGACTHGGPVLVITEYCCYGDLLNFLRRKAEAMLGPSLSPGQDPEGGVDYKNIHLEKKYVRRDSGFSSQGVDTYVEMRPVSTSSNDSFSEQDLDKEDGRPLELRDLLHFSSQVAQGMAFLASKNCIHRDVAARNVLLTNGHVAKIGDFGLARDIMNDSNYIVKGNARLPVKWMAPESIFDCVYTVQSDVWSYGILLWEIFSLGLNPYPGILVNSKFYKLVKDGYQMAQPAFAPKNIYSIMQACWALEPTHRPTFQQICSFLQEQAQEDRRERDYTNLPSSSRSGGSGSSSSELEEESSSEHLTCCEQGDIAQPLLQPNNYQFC
UniProt P41240: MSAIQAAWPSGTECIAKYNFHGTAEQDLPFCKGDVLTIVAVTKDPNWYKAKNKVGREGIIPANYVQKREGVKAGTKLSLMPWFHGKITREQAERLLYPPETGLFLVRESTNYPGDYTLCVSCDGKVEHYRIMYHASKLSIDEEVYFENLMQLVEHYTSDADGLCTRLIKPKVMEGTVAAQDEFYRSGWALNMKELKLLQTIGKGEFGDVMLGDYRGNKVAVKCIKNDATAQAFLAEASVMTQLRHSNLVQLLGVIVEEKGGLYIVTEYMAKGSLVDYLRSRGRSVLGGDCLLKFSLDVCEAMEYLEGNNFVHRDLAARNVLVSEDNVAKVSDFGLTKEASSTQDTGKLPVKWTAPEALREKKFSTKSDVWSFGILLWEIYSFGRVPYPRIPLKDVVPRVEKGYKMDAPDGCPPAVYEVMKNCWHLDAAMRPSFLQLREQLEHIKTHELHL

Assays:
Assay in all cases: number of time points (of 5) at which kinase-Nluc abundance scored as decreased, DMSO-normalised (count); higher = more persistent destabilization
Conditions in all cases: K562; 2-18 h
CAMK2A = CAMK2A (UniProt Q9UQM7)
CAMK2G = CAMK2G (UniProt Q13555)
CDK10 = CDK10 (UniProt Q15131)
CDK2 = CDK2 (UniProt P24941)
CDK3 = CDK3 (UniProt Q00526)
CDK5 = CDK5 (UniProt Q00535)
CDK6 = CDK6 (UniProt Q00534)
CHEK2 = CHEK2 (UniProt O96017)
CSF1R = CSF1R (UniProt P07333)
CSK = CSK (UniProt P41240)

| Structure (SMILES) | number of time points (CAMK2A) | number of time points (CAMK2G) | number of time points (CDK10) | number of time points (CDK2) | number of time points (CDK3) | number of time points (CDK5) | number of time points (CDK6) | number of time points (CHEK2) | number of time points (CSF1R) | number of time points (CSK) |
| --- | --- | --- | --- | --- | --- | --- | --- | --- | --- | --- |
| CC[C@H](C)[C@H](NC(=O)[C@H](CCCCN)NC(=O)[C@H](CC(C)C)NC(=O)[C@@H]1CCCN1C(=O)[C@H](CCC(=O)O)NC(=O)[C@H](Cc1ccc(O)cc1)NC(=O)[C@@H](NC(=O)[C@H](CO)NC(=O)CNC(=O)[C@H](CO)NC(=O)[C@H](CCCN=C(N)N)NC(=O)[C@H](CCCCN)NC(=O)[C@@H](NC(=O)[C@@H](N)CCCN=C(N)N)[C@@H](C)O)C(C)C)C(=O)O [Malantide] (10 µM) | 0 | 0 | 0 | 0 | 0 | 0 | 0 | 0 | 0 | 0 |
| CC[C@H](C)[C@@H]1NC(=O)[C@@H]2CCCN2C(=O)[C@@H]2CCCN2C(=O)[C@@H]2CCCN2C(=O)[C@H](CC(C)C)NC(=O)CNC(=O)CNC(=O)[C@H](Cc2ccccc2)NC1=O [Heterophyllin B] (10 µM) | 0 | 0 | 0 | 0 | 0 | 0 | 0 | 0 | 0 | 0 |
| Cc1cc(F)c(Nc2ncnc3cc(OCc4ccccc4)ccc23)cc1O (10 µM) | 0 | 0 | 0 | 0 | 0 | 0 | 0 | 0 | 0 | 0 |
| Cc1nc(NC(=O)N2CCC[C@H]2C(N)=O)sc1-c1csc(C(C)(C)C)n1 (10 µM) | 0 | 0 | 0 | 0 | 0 | 0 | 0 | 0 | 0 | 0 |
| Cc1c(C(=O)Nc2ccc(Oc3ccnc4cc(OCC(C)(C)O)ccc34)c(F)c2)c(=O)n(-c2ccccc2)n1C [Ningetinib Tosylate] (10 µM) | 0 | 2 | 0 | 0 | 0 | 0 | 2 | 1 | 1 | 0 |
| Cn1cc(-c2ccc3ncc(Cc4ccc5ncccc5c4)n3n2)cn1 (10 µM) | 0 | 0 | 0 | 0 | 0 | 0 | 0 | 0 | 0 | 0 |
| COc1c(OCCCN2CCOCC2)ccc2c3n(c(=NC(=O)c4cnc(N)nc4)nc12)CCN3 [Copanlisib (dihydrochloride)] (10 µM) | 0 | 2 | 0 | 0 | 0 | 0 | 0 | 3 | 4 | 0 |
| CNC(=O)c1nnc(NC(=O)C2CC2)cc1Nc1cccc(-c2ncn(C)n2)c1OC [Deucravacitinib] (10 µM) | 0 | 0 | 0 | 0 | 0 | 0 | 0 | 0 | 0 | 0 |
| C[C@@H]1CN(Cc2cn[nH]c2-c2ccc(C#N)cc2)CCN1c1ccc(C(F)(F)F)cn1 (2.5 µM) | 0 | 0 | 0 | 0 | 0 | 0 | 0 | 0 | 0 | 0 |
| CCS(=O)(=O)c1ccc(Oc2cc(O[C@@H](C)CO)cc(C(=O)Nc3ccn(C)n3)c2)cn1 (10 µM) | 0 | 0 | 0 | 0 | 0 | 0 | 0 | 0 | 0 | 0 |
| Nc1nc2c(ncn2COCCO)c(=O)[nH]1 [Acyclovir] (10 µM) | 0 | 0 | 0 | 0 | 0 | 0 | 0 | 0 | 0 | 0 |
| Cc1ccc(Nc2c(C(N)=O)cnc3cc(-c4ccncc4)ccc23)cc1C [cFMS Receptor Inhibitor II] (10 µM) | 0 | 0 | 0 | 0 | 0 | 0 | 0 | 0 | 0 | 0 |
| C=CC(=O)Nc1cc(C(=O)NC)cc(-c2n[nH]c3ccccc23)c1 (10 µM) | 0 | 0 | 0 | 0 | 0 | 0 | 0 | 2 | 0 | 0 |
| CNC(=O)c1ccc(-c2cnc3ncc(Cc4ccc5ncccc5c4)n3n2)cc1F [Capmatinib] (10 µM) | 0 | 0 | 0 | 0 | 0 | 0 | 0 | 0 | 0 | 0 |
| NC(=O)c1cccc2c(N[C@H](CN3CCC3)c3ccc(Cl)c(C(F)(F)F)c3)ncnc12 (10 µM) | 0 | 0 | 0 | 0 | 0 | 0 | 0 | 0 | 0 | 0 |
| CNC(=O)c1c(C)oc2cc(Oc3ncnc4cc(OC)c(OC)cc34)ccc12 [Fruquintinib] (10 µM) | 0 | 0 | 0 | 0 | 0 | 0 | 0 | 0 | 0 | 0 |

Full records, looked up by structure. Values in the order: number of time points (CAMK2A)	number of time points (CAMK2G)	number of time points (CDK10)	number of time points (CDK2)	number of time points (CDK3)	number of time points (CDK5)	number of time points (CDK6)	number of time points (CHEK2)	number of time points (CSF1R)	number of time points (CSK)
NC(=O)c1cccc2c(N[C@H](CN3CCC3)c3ccc(Cl)c(C(F)(F)F)c3)ncnc12 (10 µM) reads 0	0	0	0	0	0	0	0	0	0
Cc1c(C(=O)Nc2ccc(Oc3ccnc4cc(OCC(C)(C)O)ccc34)c(F)c2)c(=O)n(-c2ccccc2)n1C [Ningetinib Tosylate] (10 µM) reads 0	2	0	0	0	0	2	1	1	0
